# Data reported in article PMC2581436, “Role of Amphipathic Helix of a Herpesviral Protein in Membrane Deformation and T Cell Receptor Downregulation” (PLoS Pathogens, 2008).
# These are yes or no findings as the source states them, for the method shown. In cells and extracts the contact can be indirect. Some results given as binding are weak or reduced against the parent protein; the word gives no strength.
# B1: Tyrosine kinase interacting protein (Tip) of Herpesvirus saimiri, wild type (protein, UniProt P22575 1-256)
# chain: MANEGEEIELTEFPETEKERKDEEKLSSCSEETTNTSSSSGSDHVPVPIEVNVIIQNSSRTEDELQNSKEIELTGFQGKLSSCSEETTAPSSSYSSKQASVFIEENGDNETSTYRPQNVLTNLNSLYTTFEDARAQGKGMVRHKSEDLQSFLEKYPPDFRKPKRDLSATWDPGMPTPPLPPRPANLGERQASTVRLHVKESNCKQPRERKANERNIVKDLKRLENKINVIICLVVVILAVLLLVTVLSILHIGMKS
# Biological target: Tyrosine kinase interacting protein (Tip) of Herpesvirus saimiri, wild type (Herpesvirus saimiri) (UniProt P22575)
# Assay: co-IP; 293T cells co-transfected with Flag-tagged wild type Tip and GFP fusions of Tip or its mutants; immunoprecipitation with anti-Flag, immunoblot with anti-GFP; lysis buffer 150 mM NaCl, 0.5% Nonidet P-40, 50 mM HEPES pH 7.4
binder,measurement,value
B1,binding,binds
